Values from PubChem BioAssay AID1259308 (NCATS, 2017)

- Test: 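Knock-downs that increase output of a recombinant reporter protein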 (primary screen)
- Cell system: human HEK293 embryonic kidney cells stably expressing firefly luciferase (HEK-CMV-Luc2-Hygro)
- Reagent: single siRNA against human genes, 0.8 pmol siRNA per well
- Time to read-out: 72 h
- Measured: 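Luciferase light (ONE-Glo) measured on one replicate plate set and viability (CellTiter-Glo) on the other, scaled to a negative control siRNA, with robust z-scores and luciferase per cell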
- Direction: total luciferase, z-score and total luciferase, % of control: higher = more reporter protein produced; luciferase per cell, z-score: higher = more reporter output per viable cell; viable cells, % of control: higher = more viable cells
- Hit rule: 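Active when the median/MAD z-score for overall luciferase is greater than 3; a gene was taken forward for validation with new siRNAs if at least two of its three siRNAs passed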
- Meaning of the calls: active = raised luciferase; inactive = no rise
The whole screen tested about 59,000 reagents; shown is a part drawn at random. About 1,510 of all reagents (2.6%) were called active. 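Calls use total luciferase alone and ignore viability, so some active siRNAs may act by altering cell number.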 Unmarked entries are inactive. The numbers tell different reagents against one gene apart. Reagent sequences are not shown.

target gene,reagent,"total luciferase, z-score","total luciferase, % of control","luciferase per cell, z-score","viable cells, % of control"
CALHM6 (calcium homeostasis modulator family member 6),1,0.729,96.4,0.664,90.4
CALHM6 (calcium homeostasis modulator family member 6),2,0.463,91.1,-0.259,109
CALHM6 (calcium homeostasis modulator family member 6),3,0.434,90.5,0.279,94
TRPM6,1,1.53,112,1.82,77.8
TRPM6,2,-0.49,72.1,-0.355,88.5
TRPM6,3,-1.09,60.3,-1.57,102
SMIM23 (small integral membrane protein 23),1,-0.393,74.1,-0.12,85.4
SMIM23 (small integral membrane protein 23),2,0.805,97.9,0.767,89.4
SMIM23 (small integral membrane protein 23),3,1.29,107,0.803,97.2
CYB561A3 (cytochrome b561 family member A3),1,-0.134,79.2,0.509,77.4
CYB561A3 (cytochrome b561 family member A3),2,-1.88,44.4,-2.21,88.8
CYB561A3 (cytochrome b561 family member A3),3,-0.521,71.5,-0.918,102
TMEM182 (transmembrane protein 182),1,0.0323,82.5,0.767,75.4
TMEM182 (transmembrane protein 182),2,2.58,133,2.4,79.2
TMEM182 (transmembrane protein 182),3,0.334,88.5,0.588,84.7
BUD23 (BUD23 rRNA methyltransferase and ribosome maturation factor),1,-2.48,32.6,-2.6,72.3
BUD23 (BUD23 rRNA methyltransferase and ribosome maturation factor),2,-1.76,46.8,-1.83,84.8
BUD23 (BUD23 rRNA methyltransferase and ribosome maturation factor),3,-1.62,49.7,-0.296,60.1
"ROS1 (ROS proto-oncogene 1, receptor tyrosine kinase)",1,0.533,92.5,0.199,98.1
"ROS1 (ROS proto-oncogene 1, receptor tyrosine kinase)",2,1.62,114,1.72,81
"ROS1 (ROS proto-oncogene 1, receptor tyrosine kinase)",3,-0.724,67.5,-1.15,102
LSM3,1,1.14,105,1.54,77.9
LSM3,2,-1,61.9,-0.172,72.4
LSM3,3,-0.499,72,-0.322,87.5
CYB561 (cytochrome b561),1,1.65,115,2.48,66.7
CYB561 (cytochrome b561),2,-1.13,59.4,-1.2,91.1
CYB561 (cytochrome b561),3,-0.669,68.6,0.193,72.8
RBM20 (RNA binding motif protein 20),1,-0.374,74.4,0.745,68.4
RBM20 (RNA binding motif protein 20),2,-0.354,74.8,-0.162,87.3
RBM20 (RNA binding motif protein 20),3,-0.403,73.9,-0.94,106
STC1 (stanniocalcin 1),1,-0.58,70.4,-0.223,83.4
STC1 (stanniocalcin 1),2,0.7,95.8,0.00128,107
STC1 (stanniocalcin 1),3,-1.41,53.8,-1.88,98.4
HNRNPA1P8 (heterogeneous nuclear ribonucleoprotein A1 pseudogene 8),1,1.55,113,1.66,81.5
HNRNPA1P8 (heterogeneous nuclear ribonucleoprotein A1 pseudogene 8),2,1.18,105,1.26,84.5
HNRNPA1P8 (heterogeneous nuclear ribonucleoprotein A1 pseudogene 8),3,-0.386,74.2,-0.884,105
CALB2 (calbindin 2),1,0.151,84.9,1.11,70.8
CALB2 (calbindin 2),2,-0.497,72,-0.641,95.2
CALB2 (calbindin 2),3,3.61 (active),154,3.61,66.3
ATP2B2 (ATPase plasma membrane Ca2+ transporting 2),1,0.638,94.6,-0.212,112
ATP2B2 (ATPase plasma membrane Ca2+ transporting 2),2,0.1,83.9,-0.305,102
ATP2B2 (ATPase plasma membrane Ca2+ transporting 2),3,-1.87,44.8,-1.17,68.1
ATOH1 (atonal bHLH transcription factor 1),1,-1.37,54.7,-1.99,103
ATOH1 (atonal bHLH transcription factor 1),2,-1.06,60.9,-0.41,75.8
ATOH1 (atonal bHLH transcription factor 1),3,-0.863,64.7,-0.792,89.1
LRRC4C (leucine rich repeat containing 4C),1,-1.92,43.8,-2.42,92.5
LRRC4C (leucine rich repeat containing 4C),2,0.142,84.7,-0.00189,94.7
LRRC4C (leucine rich repeat containing 4C),3,-0.529,71.4,-1.52,119
NRTN (neurturin),1,0.467,91.2,-0.379,113
NRTN (neurturin),2,-0.242,77.1,0.14,83
NRTN (neurturin),3,0.0693,83.3,-0.235,99
TTC32 (tetratricopeptide repeat domain 32),1,0.959,101,0.997,86.8
TTC32 (tetratricopeptide repeat domain 32),2,0.605,93.9,0.167,100
TTC32 (tetratricopeptide repeat domain 32),3,1.49,111,1.13,92.5
SIPA1L2 (signal induced proliferation associated 1 like 2),1,-0.894,64.1,-0.751,87.3
SIPA1L2 (signal induced proliferation associated 1 like 2),2,-0.261,76.7,-0.178,89.8
SIPA1L2 (signal induced proliferation associated 1 like 2),3,-0.538,71.2,-0.959,102
IQSEC3P3 (IQ motif and Sec7 domain 3 pseudogene 3),1,0.792,97.6,-0.00386,109
IQSEC3P3 (IQ motif and Sec7 domain 3 pseudogene 3),2,-0.521,71.5,0.85,63.9
IQSEC3P3 (IQ motif and Sec7 domain 3 pseudogene 3),3,-0.693,68.1,-0.791,93.7
CFHR4 (complement factor H related 4),1,-0.394,74.1,-0.144,86
CFHR4 (complement factor H related 4),2,-0.467,72.6,-0.506,92.7
CFHR4 (complement factor H related 4),3,0.885,99.5,0.77,90.8
STARD10 (StAR related lipid transfer domain containing 10),1,0.101,83.9,0.292,86.8
STARD10 (StAR related lipid transfer domain containing 10),2,-1.51,51.8,-1.37,82.9
STARD10 (StAR related lipid transfer domain containing 10),3,0.309,88,2.24,54.5
PRKRA,1,1.1,104,0.371,105
PRKRA,2,0.882,99.4,-0.325,121
PRKRA,3,-0.159,78.7,-0.753,107
PPP1R3A (protein phosphatase 1 regulatory subunit 3A),1,0.335,88.6,0.154,95
PPP1R3A (protein phosphatase 1 regulatory subunit 3A),2,-0.795,66.1,-1.28,103
PPP1R3A (protein phosphatase 1 regulatory subunit 3A),3,-1.66,49,-2.23,98.3
EGFL6 (EGF like domain multiple 6),1,1.18,105,0.598,101
EGFL6 (EGF like domain multiple 6),2,0.438,90.6,0.666,85
EGFL6 (EGF like domain multiple 6),3,-0.344,75,-1,109

Active calls, of those listed so far:
target gene,reagent,"total luciferase, z-score","total luciferase, % of control","luciferase per cell, z-score","viable cells, % of control"
CALB2 (calbindin 2),3,3.61 (active),154,3.61,66.3
